Holding throughout (experiment): co-IP
For one assay, the target named is T1, TAG-1-GFP (human) (UniProt Q02246).
T1 sequence: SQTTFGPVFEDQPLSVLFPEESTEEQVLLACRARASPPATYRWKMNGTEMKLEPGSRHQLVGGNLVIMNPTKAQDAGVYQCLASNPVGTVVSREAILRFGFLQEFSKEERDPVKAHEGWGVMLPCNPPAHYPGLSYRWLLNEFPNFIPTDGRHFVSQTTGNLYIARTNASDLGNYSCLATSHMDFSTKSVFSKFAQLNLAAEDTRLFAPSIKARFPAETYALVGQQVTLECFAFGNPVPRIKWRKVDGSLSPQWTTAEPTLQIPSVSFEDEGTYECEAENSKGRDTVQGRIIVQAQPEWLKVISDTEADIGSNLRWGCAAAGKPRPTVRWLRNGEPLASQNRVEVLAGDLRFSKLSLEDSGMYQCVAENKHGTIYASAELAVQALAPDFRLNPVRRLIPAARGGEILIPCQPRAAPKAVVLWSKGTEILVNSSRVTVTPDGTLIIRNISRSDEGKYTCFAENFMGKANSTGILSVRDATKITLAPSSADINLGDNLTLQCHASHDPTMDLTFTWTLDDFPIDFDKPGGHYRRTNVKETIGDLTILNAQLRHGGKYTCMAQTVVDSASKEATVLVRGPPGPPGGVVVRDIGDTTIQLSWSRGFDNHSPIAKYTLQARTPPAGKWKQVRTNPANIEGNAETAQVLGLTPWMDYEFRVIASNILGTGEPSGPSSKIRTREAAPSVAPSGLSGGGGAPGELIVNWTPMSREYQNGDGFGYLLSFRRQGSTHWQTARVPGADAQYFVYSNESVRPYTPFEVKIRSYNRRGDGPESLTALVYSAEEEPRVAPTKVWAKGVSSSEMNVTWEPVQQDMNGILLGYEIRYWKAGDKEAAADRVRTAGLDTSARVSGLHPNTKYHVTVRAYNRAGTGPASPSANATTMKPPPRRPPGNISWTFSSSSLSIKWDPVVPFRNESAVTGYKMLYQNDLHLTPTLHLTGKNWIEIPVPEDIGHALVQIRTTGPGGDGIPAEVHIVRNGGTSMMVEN

Protein sequences, listed by entry. Tags and fused reporters are not part of them. Lines headed by an entry give the natural chain unless they say otherwise; changes in a name come on top.
UniProt Q9P0K1: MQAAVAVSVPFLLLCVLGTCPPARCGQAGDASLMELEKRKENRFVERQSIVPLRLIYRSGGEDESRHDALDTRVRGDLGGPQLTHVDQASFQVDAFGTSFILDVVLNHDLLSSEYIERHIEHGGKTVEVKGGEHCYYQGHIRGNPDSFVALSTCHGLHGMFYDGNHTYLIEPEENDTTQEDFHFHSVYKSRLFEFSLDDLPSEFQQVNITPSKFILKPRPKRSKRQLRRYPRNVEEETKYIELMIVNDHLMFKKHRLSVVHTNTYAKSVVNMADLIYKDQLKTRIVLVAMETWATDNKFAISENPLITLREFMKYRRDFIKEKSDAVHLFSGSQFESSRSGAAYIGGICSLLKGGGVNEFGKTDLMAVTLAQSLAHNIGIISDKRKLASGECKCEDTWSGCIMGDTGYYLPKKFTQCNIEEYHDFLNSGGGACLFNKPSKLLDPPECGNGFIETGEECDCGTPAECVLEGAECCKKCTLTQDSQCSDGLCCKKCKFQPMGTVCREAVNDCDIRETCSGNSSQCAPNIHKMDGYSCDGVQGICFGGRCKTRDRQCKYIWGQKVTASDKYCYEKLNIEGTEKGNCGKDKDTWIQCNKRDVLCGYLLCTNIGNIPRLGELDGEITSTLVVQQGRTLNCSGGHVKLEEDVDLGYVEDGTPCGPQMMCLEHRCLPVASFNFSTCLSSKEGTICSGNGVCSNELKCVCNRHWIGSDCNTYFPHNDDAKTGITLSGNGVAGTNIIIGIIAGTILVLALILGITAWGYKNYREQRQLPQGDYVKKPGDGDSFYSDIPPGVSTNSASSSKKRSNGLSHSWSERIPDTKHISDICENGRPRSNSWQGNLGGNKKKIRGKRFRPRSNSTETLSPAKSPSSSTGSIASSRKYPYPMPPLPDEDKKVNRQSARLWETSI
UniProt O75077: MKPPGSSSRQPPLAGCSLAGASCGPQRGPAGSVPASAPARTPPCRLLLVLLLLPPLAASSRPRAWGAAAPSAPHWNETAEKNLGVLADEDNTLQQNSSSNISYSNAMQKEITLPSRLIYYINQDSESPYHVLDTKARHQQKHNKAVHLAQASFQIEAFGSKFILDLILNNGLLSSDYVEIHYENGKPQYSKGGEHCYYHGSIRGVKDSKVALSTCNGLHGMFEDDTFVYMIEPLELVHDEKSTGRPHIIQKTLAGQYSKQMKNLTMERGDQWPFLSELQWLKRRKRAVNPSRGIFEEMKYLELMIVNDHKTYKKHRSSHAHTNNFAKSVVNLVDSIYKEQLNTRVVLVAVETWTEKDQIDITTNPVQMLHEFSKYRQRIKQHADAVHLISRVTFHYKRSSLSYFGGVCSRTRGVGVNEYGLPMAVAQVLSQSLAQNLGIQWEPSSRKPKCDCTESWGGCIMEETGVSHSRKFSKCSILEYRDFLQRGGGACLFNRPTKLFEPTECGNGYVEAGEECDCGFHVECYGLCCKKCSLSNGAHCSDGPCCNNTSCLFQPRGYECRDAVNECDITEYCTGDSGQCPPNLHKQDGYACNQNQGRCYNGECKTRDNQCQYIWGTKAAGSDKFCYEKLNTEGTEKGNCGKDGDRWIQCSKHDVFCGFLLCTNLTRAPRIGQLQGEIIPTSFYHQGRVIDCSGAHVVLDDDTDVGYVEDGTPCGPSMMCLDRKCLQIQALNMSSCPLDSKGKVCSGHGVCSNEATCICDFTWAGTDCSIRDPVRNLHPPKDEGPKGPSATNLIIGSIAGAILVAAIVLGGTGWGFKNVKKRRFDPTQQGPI

The target in assay [1] is T2, LGI1-GFP (Leucine-rich Glioma Inactivated 1 fused to GFP) (human) (UniProt O95970).
T2 sequence: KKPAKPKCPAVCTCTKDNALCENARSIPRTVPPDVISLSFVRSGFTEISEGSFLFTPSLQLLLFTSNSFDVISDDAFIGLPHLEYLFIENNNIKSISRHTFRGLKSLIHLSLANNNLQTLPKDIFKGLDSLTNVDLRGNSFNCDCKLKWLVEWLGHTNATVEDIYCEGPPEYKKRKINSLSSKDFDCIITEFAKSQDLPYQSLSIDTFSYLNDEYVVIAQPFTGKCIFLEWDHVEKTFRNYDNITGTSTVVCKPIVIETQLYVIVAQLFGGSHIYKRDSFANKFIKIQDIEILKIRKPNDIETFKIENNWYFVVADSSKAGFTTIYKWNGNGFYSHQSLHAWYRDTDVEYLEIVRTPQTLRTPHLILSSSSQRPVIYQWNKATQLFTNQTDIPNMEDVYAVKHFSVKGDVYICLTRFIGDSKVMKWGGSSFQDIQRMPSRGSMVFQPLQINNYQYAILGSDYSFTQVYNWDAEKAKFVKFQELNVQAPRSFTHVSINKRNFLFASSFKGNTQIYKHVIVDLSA

The target of another assay is ADAM22-mCherry (human) (UniProt Q9P0K1).
For the next assay, the target named is ADAM23-mCherry (human) (UniProt O75077).

Experimental findings from paper doi:10.1101/311365 are described below.

Results are given in words; binding and its absence hold for the method and conditions named. In cells and extracts the contact can be indirect. For some assays here: A result given as binding can be weak or reduced; the word gives no strength. Tags and fused reporters may be left off the sequences shown.

For the molecule ADAM23-mCherry (from UniProt O75077), the binding entry with TAG-1-GFP (human) is given as “no binding”; in assay [1], “binds”.

B1: Caspr2-HA (full-length) (protein, UniProt Q9UHC6 28-1331)
chain: APSTSQKCDEPLVSGLPHVAFSSSSSISGSYSPGYAKINKRGGAGGWSPSDSDHYQWLQVDFGNRKQISAIATQGRYSSSDWVTQYRMLYSDTGRNWKPYHQDGNIWAFPGNINSDGVVRHELQHPIIARYVRIVPLDWNGEGRIGLRIEVYGCSYWADVINFDGHVVLPYRFRNKKMKTLKDVIALNFKTSESEGVILHGEGQQGDYITLELKKAKLVLSLNLGSNQLGPIYGHTSVMTGSLLDDHHWHSVVIERQGRSINLTLDRSMQHFRTNGEFDYLDLDYEITFGGIPFSGKPSSSSRKNFKGCMESINYNGVNITDLARRKKLEPSNVGNLSFSCVEPYTVPVFFNATSYLEVPGRLNQDLFSVSFQFRTWNPNGLLVFSHFADNLGNVEIDLTESKVGVHINITQTKMSQIDISSGSGLNDGQWHEVRFLAKENFAILTIDGDEASAVRTNSPLQVKTGEKYFFGGFLNQMNNSSHSVLQPSFQGCMQLIQVDDQLVNLYEVAQRKPGSFANVSIDMCAIIDRCVPNHCEHGGKCSQTWDSFKCTCDETGYSGATCHNSIYEPSCEAYKHLGQTSNYYWIDPDGSGPLGPLKVYCNMTEDKVWTIVSHDLQMQTPVVGYNPEKYSVTQLVYSASMDQISAITDSAEYCEQYVSYFCKMSRLLNTPDGSPYTWWVGKANEKHYYWGGSGPGIQKCACGIERNCTDPKYYCNCDADYKQWRKDAGFLSYKDHLPVSQVVVGDTDRQGSEAKLSVGPLRCQGDRNYWNAASFPNPSSYLHFSTFQGETSADISFYFKTLTPWGVFLENMGKEDFIKLELKSATEVSFSFDVGNGPVEIVVRSPTPLNDDQWHRVTAERNVKQASLQVDRLPQQIRKAPTEGHTRLELYSQLFVGGAGGQQGFLGCIRSLRMNGVTLDLEERAKVTSGFISGCSGHCTSYGTNCENGGKCLERYHGYSCDCSNTAYDGTFCNKDVGAFFEEGMWLRYNFQAPATNARDSSSRVDNAPDQQNSHPDLAQEEIRFSFSTTKAPCILLYISSFTTDFLAVLVKPTGSLQIRYNLGGTREPYNIDVDHRNMANGQPHSVNITRHEKTIFLKLDHYPSVSYHLPSSSDTLFNSPKSLFLGKVIETGKIDQEIHKYNTPGFTGCLSRVQFNQIAPLKAALRQTNASAHVHIQGELVESNCGASPLTLSPMSSATDPWHLDHLDSASADFPYNPGQGQAIRNGVNRNSAIIGGVIAVVIFTILCTLVFLIRYMFRHKGTYHTNEAKGAESAESADAAIMNNDPNFTETIDESKKEWLI
B1: in the assay with ADAM22-mCherry (human), the binding result is recorded as “binds”.

B2: TAG-1-GFP (protein, UniProt Q02246 31-1012)
chain: SQTTFGPVFEDQPLSVLFPEESTEEQVLLACRARASPPATYRWKMNGTEMKLEPGSRHQLVGGNLVIMNPTKAQDAGVYQCLASNPVGTVVSREAILRFGFLQEFSKEERDPVKAHEGWGVMLPCNPPAHYPGLSYRWLLNEFPNFIPTDGRHFVSQTTGNLYIARTNASDLGNYSCLATSHMDFSTKSVFSKFAQLNLAAEDTRLFAPSIKARFPAETYALVGQQVTLECFAFGNPVPRIKWRKVDGSLSPQWTTAEPTLQIPSVSFEDEGTYECEAENSKGRDTVQGRIIVQAQPEWLKVISDTEADIGSNLRWGCAAAGKPRPTVRWLRNGEPLASQNRVEVLAGDLRFSKLSLEDSGMYQCVAENKHGTIYASAELAVQALAPDFRLNPVRRLIPAARGGEILIPCQPRAAPKAVVLWSKGTEILVNSSRVTVTPDGTLIIRNISRSDEGKYTCFAENFMGKANSTGILSVRDATKITLAPSSADINLGDNLTLQCHASHDPTMDLTFTWTLDDFPIDFDKPGGHYRRTNVKETIGDLTILNAQLRHGGKYTCMAQTVVDSASKEATVLVRGPPGPPGGVVVRDIGDTTIQLSWSRGFDNHSPIAKYTLQARTPPAGKWKQVRTNPANIEGNAETAQVLGLTPWMDYEFRVIASNILGTGEPSGPSSKIRTREAAPSVAPSGLSGGGGAPGELIVNWTPMSREYQNGDGFGYLLSFRRQGSTHWQTARVPGADAQYFVYSNESVRPYTPFEVKIRSYNRRGDGPESLTALVYSAEEEPRVAPTKVWAKGVSSSEMNVTWEPVQQDMNGILLGYEIRYWKAGDKEAAADRVRTAGLDTSARVSGLHPNTKYHVTVRAYNRAGTGPASPSANATTMKPPPRRPPGNISWTFSSSSLSIKWDPVVPFRNESAVTGYKMLYQNDLHLTPTLHLTGKNWIEIPVPEDIGHALVQIRTTGPGGDGIPAEVHIVRNGGTSMMVEN
In the case of B2, the binding result with ADAM22-mCherry (human) is given as “binds”; with ADAM23-mCherry (human), “no binding”.

B3: Caspr2Δcyt-HA (Caspr2 deleted from its cytoplasmic tail) (domain or fragment, UniProt Q9UHC6 28-1284)
chain: APSTSQKCDEPLVSGLPHVAFSSSSSISGSYSPGYAKINKRGGAGGWSPSDSDHYQWLQVDFGNRKQISAIATQGRYSSSDWVTQYRMLYSDTGRNWKPYHQDGNIWAFPGNINSDGVVRHELQHPIIARYVRIVPLDWNGEGRIGLRIEVYGCSYWADVINFDGHVVLPYRFRNKKMKTLKDVIALNFKTSESEGVILHGEGQQGDYITLELKKAKLVLSLNLGSNQLGPIYGHTSVMTGSLLDDHHWHSVVIERQGRSINLTLDRSMQHFRTNGEFDYLDLDYEITFGGIPFSGKPSSSSRKNFKGCMESINYNGVNITDLARRKKLEPSNVGNLSFSCVEPYTVPVFFNATSYLEVPGRLNQDLFSVSFQFRTWNPNGLLVFSHFADNLGNVEIDLTESKVGVHINITQTKMSQIDISSGSGLNDGQWHEVRFLAKENFAILTIDGDEASAVRTNSPLQVKTGEKYFFGGFLNQMNNSSHSVLQPSFQGCMQLIQVDDQLVNLYEVAQRKPGSFANVSIDMCAIIDRCVPNHCEHGGKCSQTWDSFKCTCDETGYSGATCHNSIYEPSCEAYKHLGQTSNYYWIDPDGSGPLGPLKVYCNMTEDKVWTIVSHDLQMQTPVVGYNPEKYSVTQLVYSASMDQISAITDSAEYCEQYVSYFCKMSRLLNTPDGSPYTWWVGKANEKHYYWGGSGPGIQKCACGIERNCTDPKYYCNCDADYKQWRKDAGFLSYKDHLPVSQVVVGDTDRQGSEAKLSVGPLRCQGDRNYWNAASFPNPSSYLHFSTFQGETSADISFYFKTLTPWGVFLENMGKEDFIKLELKSATEVSFSFDVGNGPVEIVVRSPTPLNDDQWHRVTAERNVKQASLQVDRLPQQIRKAPTEGHTRLELYSQLFVGGAGGQQGFLGCIRSLRMNGVTLDLEERAKVTSGFISGCSGHCTSYGTNCENGGKCLERYHGYSCDCSNTAYDGTFCNKDVGAFFEEGMWLRYNFQAPATNARDSSSRVDNAPDQQNSHPDLAQEEIRFSFSTTKAPCILLYISSFTTDFLAVLVKPTGSLQIRYNLGGTREPYNIDVDHRNMANGQPHSVNITRHEKTIFLKLDHYPSVSYHLPSSSDTLFNSPKSLFLGKVIETGKIDQEIHKYNTPGFTGCLSRVQFNQIAPLKAALRQTNASAHVHIQGELVESNCGASPLTLSPMSSATDPWHLDHLDSASADFPYNPGQGQAIRNGVNRNSAIIGGVIAVVIFTILCTLVFLIR
B3: the binding result with ADAM22-mCherry (human) and with ADAM23-mCherry (human) was “binds” in each case.

B4: LGI1-GFP (Leucine-rich Glioma Inactivated 1 fused to GFP) (protein, UniProt O95970 35-557)
chain: KKPAKPKCPAVCTCTKDNALCENARSIPRTVPPDVISLSFVRSGFTEISEGSFLFTPSLQLLLFTSNSFDVISDDAFIGLPHLEYLFIENNNIKSISRHTFRGLKSLIHLSLANNNLQTLPKDIFKGLDSLTNVDLRGNSFNCDCKLKWLVEWLGHTNATVEDIYCEGPPEYKKRKINSLSSKDFDCIITEFAKSQDLPYQSLSIDTFSYLNDEYVVIAQPFTGKCIFLEWDHVEKTFRNYDNITGTSTVVCKPIVIETQLYVIVAQLFGGSHIYKRDSFANKFIKIQDIEILKIRKPNDIETFKIENNWYFVVADSSKAGFTTIYKWNGNGFYSHQSLHAWYRDTDVEYLEIVRTPQTLRTPHLILSSSSQRPVIYQWNKATQLFTNQTDIPNMEDVYAVKHFSVKGDVYICLTRFIGDSKVMKWGGSSFQDIQRMPSRGSMVFQPLQINNYQYAILGSDYSFTQVYNWDAEKAKFVKFQELNVQAPRSFTHVSINKRNFLFASSFKGNTQIYKHVIVDLSA
With B4, the binding result in the assay with ADAM23-mCherry (human) is recorded as “binds”.
